Measurements from article PMC12576456.

Legend:
[1] = target: T1, SlTFT1 (14-3-3 protein) (Solanum lycopersicum (M82 cDNA)) (UniProt P93206); test: EMSA; conditions: EMSA: binding buffer (composition not given), 30 min at 25 C; 6% native polyacrylamide gel at 4 C; FAM detection; protein translated in vitro; residues 1-249; protein details: 6xHis; label: FAM
T1 sequence (looked up): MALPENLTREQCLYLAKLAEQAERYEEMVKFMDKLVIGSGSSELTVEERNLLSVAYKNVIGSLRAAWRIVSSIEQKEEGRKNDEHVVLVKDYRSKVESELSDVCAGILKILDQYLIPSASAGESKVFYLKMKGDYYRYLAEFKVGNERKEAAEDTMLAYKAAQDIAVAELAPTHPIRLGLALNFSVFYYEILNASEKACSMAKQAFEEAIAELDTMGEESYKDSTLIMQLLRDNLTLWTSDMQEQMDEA

[2] = target: T2, YFT1-C (EIN2-like protein, C-terminal part) (Solanum lycopersicum) (UniProt A0A3Q7HW43); test: EMSA; conditions: EMSA: binding buffer (composition not given), 30 min at 25 C; 6% native polyacrylamide gel at 4 C; FAM detection; protein translated in vitro; protein details: 6xHis; label: FAM
T2 sequence (looked up, limits assumed): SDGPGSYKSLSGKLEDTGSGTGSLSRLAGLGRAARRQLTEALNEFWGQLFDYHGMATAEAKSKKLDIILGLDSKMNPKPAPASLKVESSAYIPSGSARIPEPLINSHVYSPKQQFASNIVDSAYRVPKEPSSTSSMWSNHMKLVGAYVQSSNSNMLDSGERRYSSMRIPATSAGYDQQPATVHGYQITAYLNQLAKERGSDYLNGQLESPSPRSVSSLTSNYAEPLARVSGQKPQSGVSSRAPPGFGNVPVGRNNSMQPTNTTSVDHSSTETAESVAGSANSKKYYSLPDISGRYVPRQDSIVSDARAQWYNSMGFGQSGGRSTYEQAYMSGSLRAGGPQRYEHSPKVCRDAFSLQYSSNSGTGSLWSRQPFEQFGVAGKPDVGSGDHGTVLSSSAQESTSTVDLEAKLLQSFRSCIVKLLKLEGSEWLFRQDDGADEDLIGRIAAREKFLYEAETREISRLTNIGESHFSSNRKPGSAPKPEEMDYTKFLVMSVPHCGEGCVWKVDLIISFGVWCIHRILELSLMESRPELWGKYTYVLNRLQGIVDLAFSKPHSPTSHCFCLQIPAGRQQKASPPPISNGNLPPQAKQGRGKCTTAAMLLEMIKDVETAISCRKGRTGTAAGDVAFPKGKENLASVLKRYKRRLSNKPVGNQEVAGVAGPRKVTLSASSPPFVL

Sequence | binding result [1] | binding result [2]
CCATCTCTCTAGGATATGTATTATGTACAGGTTCCTCTCTTT (double strand) [pYFT1-probe1] | no binding | –
GTTAGAATATCAGCTATAAATGTAGTCGAATTCAATAATTTT (double strand) [pSlTFT1-probe1] | – | no binding
CTTTTAACTGGAATTAACATGTATATAGTTTTAGTTTGGATA (double strand) [pYFT1-probe2] | no binding | –
TAATTCAACAAAATAAATGATGTATTTTTTTTTTATATATTC (double strand) [pSlTFT1-probe2] | – | no binding

Construct, isoform or probe ends are uncertain for at least one entry. A negative result means that nothing was seen under these conditions. At least one verdict was read from the data and is not stated in words by the source. Where a protein sequence is shown, tags need not be part of it.
